1 compound from ChEMBL document CHEMBL5352400, “Design, synthesis and biological evaluation of novel coumarin derivatives as multifunctional ligands for the treatment of Alzheimer's disease” (Eur J Med Chem, 2022) can be followed below.

Each structure is given as a SMILES string.

This series in a line: Effective permeability of the compound in PBS buffer at pH 7.4/EtOH buffer (7:3) incubated for 20 hrs by UV-plate spectroscopy based PAMPA-BBB assay. For orientation: In PAMPA a lipid-coated filter parts donor from acceptor wells.

In general, Papp refers to the rate of passage across a membrane or cell layer, normalised by area and donor concentration. Low readings indicate slow passage, high ones fast passage. Compound `COc1cc2c(cc1OC)C(=O)C(CC1CCN(Cc3ccccc3)CC1)C2` (stereo unspecified) [DONEPEZIL] displayed a Papp at 20 h of 20.6 ×10⁻⁶ cm/s.
